Source: PubChem BioAssay AID248 (DTP/NCI, 2004)
The list does not hold the whole screen: it gathers tests that were run many times, whatever their T/C, doses with no T/C, and many T/C values between a quarter and a half above the control. Further doses and runs are listed elsewhere. T/C: endpoint of the treated group in % of that of the vehicle group. Some entries give survivors of the animals treated and no T/C: the source files T/C as zero there, which appears to mark a toxic dose or a test without result, not a measured value. Some doses without a T/C left all or most animals alive at the check, yet need not have been tolerated: survival well below the control is almost never listed, so the zero probably covers shortened survival too. Survivors were counted at the toxicity check, usually on the fifth day, unless a day is given; later deaths do not show. Schedules are NCI's codes, taken here to give the interval after Q, in days (D) or hours (H), and the number of doses after X. Some entries hold several experiments; the results are listed from low to high. For survival time, this PubChem deposit counts one and a half times the control or more as active, and values a quarter to a half above the control carry no call in these data; other NCI protocols may use other cut-offs. Some T/C values are followed by the survivors on the day toxicity was checked, most often the fifth; without a count, all were alive then.

System: L1210 leukemia ip in BDF1 mice, survival T/C
Assay: NCI In Vivo Anticancer Drug Screen. Data for tumor model L1210 Leukemia (intraperitoneal) in B6D2F1 (BDF1) mice
Settings: T/C endpoint: mean survival time, higher T/C = longer survival
[1] = dose: 100.0 mg/kg/injection, schedule: Q04DX003 (ip), vehicle: Klucel (hydroxypropylcellulose) (HPC)
[2] = dose: 200.0 mg/kg/injection, schedule: Q04DX003 (ip), vehicle: Klucel (hydroxypropylcellulose) (HPC)
[3] = dose: 400.0 mg/kg/injection, schedule: Q04DX003 (ip), vehicle: Klucel (hydroxypropylcellulose) (HPC)
[4] = dose: 200.0 mg/kg/injection, schedule: Q04DX003 (ip), vehicle: saline with Tween-80
[5] = dose: 400.0 mg/kg/injection, schedule: Q04DX003 (ip), vehicle: saline with Tween-80
[6] = dose: 100.0 mg/kg/injection, schedule: Q04DX003 (ip), vehicle: saline
[7] = dose: 200.0 mg/kg/injection, schedule: Q04DX003 (ip), vehicle: saline
[8] = dose: 400.0 mg/kg/injection, schedule: Q04DX003 (ip), vehicle: saline
[9] = dose: 80.0 mg/kg/injection, schedule: Q01DX001 (ip), vehicle: saline
[10] = dose: 100.0 mg/kg/injection, schedule: Q01DX001 (ip), vehicle: saline
[11] = dose: 200.0 mg/kg/injection, schedule: Q01DX001 (ip), vehicle: saline
[12] = dose: 400.0 mg/kg/injection, schedule: Q01DX001 (ip), vehicle: saline
[13] = dose: 400.0 mg/kg/injection, schedule: Q04DX002 (ip), vehicle: Klucel (hydroxypropylcellulose) (HPC)

CC(=O)NCc1ccc(N)cc1
survivor count (dose: 25.0 mg/kg/injection, schedule: Q01DX009 (ip), vehicle: water): 0 of 6
survivor count (dose: 50.0 mg/kg/injection, schedule: Q01DX009 (ip), vehicle: water): 6 of 6
survivor count (dose: 100.0 mg/kg/injection, schedule: Q01DX009 (ip), vehicle: water): 6 of 6
survivor count (dose: 200.0 mg/kg/injection, schedule: Q01DX009 (ip), vehicle: water): 6 of 6
survivor count (dose: 400.0 mg/kg/injection, schedule: Q01DX009 (ip), vehicle: water): 6 of 6

O=C1C=CC(=O)c2nc(-c3ccccn3)c(-c3ccccn3)nc21
survivor count [1]: 1 of 6
survivor count [2]: 1 of 6
survivor count [3]: 0 of 6

NS(=O)(=O)c1ccc(S(=O)(=O)N2CCCCC2)cc1
survivor count (dose: 400.0 mg/kg/injection, schedule: Q01DX009 (ip), vehicle: Klucel (hydroxypropylcellulose) (HPC)): 5 of 6

Brc1ccc(-c2csc3cccc[n+]23)cc1
survivor count (dose: 100.0 mg/kg/injection, schedule: Q04DX003 (ip), vehicle: saline with Tween-80): 0 of 6
survivor count [4]: 0 of 6
survivor count [5]: 0 of 6

Cc1cc(N(CCCCl)CCCCl)ccc1C=Nc1cccc(Cl)c1
survivor count [1]: 5 of 6
survivor count [2]: 6 of 6
survivor count [3]: 6 of 6

CC(c1ccccc1)[As](C)(=O)O (stereo not drawn)
survivor count [6]: 6 of 6
survivor count [7]: 4 of 6
survivor count [8]: 0 of 6

C=CC1OC2OC(C)(C)OC2C1O (stereo not drawn)
survivor count [9]: 0 of 4
survivor count [10]: 1 of 4
T/C (dose: 100.0 mg/kg/injection, schedule: Q01DX001 (ip), vehicle: steroid suspending solution): 125 % of control
survivor count [11]: 0 of 4
survivor count [12]: 0 of 4

Cc1cc(N=Nc2ccccc2)c2cccnc2c1N
survivor count (dose: 200.0 mg/kg/injection, schedule: Q04DX003 (ip), vehicle: DMSO): 6 of 6

C/C=C\C(=O)N(CC)C(=NCC)c1ccc(NC(=O)c2ccc(C(=O)Nc3ccc(C(=NCC)N(CC)C(=O)/C=C/C)cc3)cc2)cc1
T/C (dose: 3.12 mg/kg/injection, schedule: Q01DX015 (ip), vehicle: methylcellulose (MC)): 136 % of control
T/C (dose: 12.5 mg/kg/injection, schedule: Q01DX015 (ip), vehicle: methylcellulose (MC)): 129 % of control [5 of 6 alive]
survivor count (dose: 25.0 mg/kg/injection, schedule: Q01DX015 (ip), vehicle: methylcellulose (MC)): 0 of 6
survivor count (dose: 50.0 mg/kg/injection, schedule: Q01DX015 (ip), vehicle: methylcellulose (MC)): 0 of 6
survivor count (dose: 100.0 mg/kg/injection, schedule: Q01DX015 (ip), vehicle: methylcellulose (MC)): 0 of 6
survivor count (dose: 200.0 mg/kg/injection, schedule: Q01DX015 (ip), vehicle: methylcellulose (MC)): 0 of 6
survivor count (dose: 400.0 mg/kg/injection, schedule: Q01DX015 (ip), vehicle: methylcellulose (MC)): 0 of 6

Clc1ccc(-c2nn[nH]n2)cc1
survivor count [13]: 1 of 3

CC(=O)Nc1ccc(/C=N\NC(=O)CCCC(=O)N/N=C/c2ccc(NC(C)=O)cc2)cc1
survivor count (dose: 200.0 mg/kg/injection, schedule: Q01DX009 (ip), vehicle: saline): 6 of 6

CC1(C)OCC(CO)([N+](=O)[O-])CO1
survivor count (dose: 200.0 mg/kg/injection, schedule: Q01DX009 (ip), vehicle: saline with Tween-80): 3 of 6
T/C [4]: 125 % of control
survivor count [4]: 1 of 6
survivor count (dose: 300.0 mg/kg/injection, schedule: Q04DX003 (ip), vehicle: saline with Tween-80): 0 of 6
survivor count [5]: 0 of 6

CCCC(O)CNCc1ccc2c3c(cccc13)CC2 (stereo not drawn)
survivor count (dose: 100.0 mg/kg/injection, schedule: Q01DX001 (ip), vehicle: Klucel (hydroxypropylcellulose) (HPC)): 1 of 3
survivor count (dose: 200.0 mg/kg/injection, schedule: Q01DX001 (ip), vehicle: Klucel (hydroxypropylcellulose) (HPC)): 0 of 3
survivor count (dose: 400.0 mg/kg/injection, schedule: Q01DX001 (ip), vehicle: Klucel (hydroxypropylcellulose) (HPC)): 0 of 3

CCOC(=O)C(NC(C)=O)(C(=O)OCC)C(=O)c1ccc(Cl)cc1
survivor count (dose: 400.0 mg/kg/injection, schedule: Q01DX001 (ip), vehicle: carboxymethylcellulose (CMC)): 4 of 4

CCCCCOC(=O)C#CC(=O)OCCCCC
T/C (dose: 6.25 mg/kg/injection, schedule: Q01DX009 (ip), vehicle: carboxymethylcellulose (CMC)): 89, 89 [2 of 3 alive], 101, 102 % of control
survivor count (dose: 12.5 mg/kg/injection, schedule: Q01DX009 (ip), vehicle: carboxymethylcellulose (CMC)): 6 of 6
survivor count (dose: 25.0 mg/kg/injection, schedule: Q01DX009 (ip), vehicle: carboxymethylcellulose (CMC)): 1 of 6 and 2 of 3
survivor count (dose: 50.0 mg/kg/injection, schedule: Q01DX009 (ip), vehicle: carboxymethylcellulose (CMC)): 6 of 6
survivor count (dose: 100.0 mg/kg/injection, schedule: Q01DX009 (ip), vehicle: carboxymethylcellulose (CMC)): 3 of 6 and 2 of 3
survivor count (dose: 100.0 mg/kg/injection, schedule: Q04DX003 (ip), vehicle: carboxymethylcellulose (CMC)): 5 of 6
survivor count (dose: 200.0 mg/kg/injection, schedule: Q01DX009 (ip), vehicle: carboxymethylcellulose (CMC)): 0 of 3 and 0 of 6
survivor count (dose: 200.0 mg/kg/injection, schedule: Q04DX003 (ip), vehicle: carboxymethylcellulose (CMC)): 0 of 6
survivor count (dose: 400.0 mg/kg/injection, schedule: Q04DX002 (ip), vehicle: carboxymethylcellulose (CMC)): 0 of 3 and 2 of 6

NNC(=O)CNc1ccc(F)cc1Br
survivor count [13]: 1 of 3

S=P(S)(Oc1ccc(Cl)cc1Cl)Oc1ccc(Cl)cc1Cl.[Cd]
survivor count (dose: 100.0 mg/kg/injection, schedule: Q04DX002 (ip), vehicle: saline with Tween-80): 1 of 3
survivor count (dose: 200.0 mg/kg/injection, schedule: Q04DX002 (ip), vehicle: saline with Tween-80): 0 of 3
survivor count (dose: 400.0 mg/kg/injection, schedule: Q04DX002 (ip), vehicle: saline with Tween-80): 0 of 3

[Cl][Pb]([Cl])([c]1ccccc1)[c]1ccccc1
survivor count (dose: 100.0 mg/kg/injection, schedule: Q04DX002 (ip), vehicle: Klucel (hydroxypropylcellulose) (HPC)): 3 of 3
survivor count (dose: 200.0 mg/kg/injection, schedule: Q04DX002 (ip), vehicle: Klucel (hydroxypropylcellulose) (HPC)): 3 of 3
survivor count [13]: 2 of 3

C=C[P+](c1ccccc1)(c1ccccc1)c1ccccc1
survivor count (dose: 4.6 mg/kg/injection, schedule: Q01DX009 (ip), vehicle: saline): 0 of 6
survivor count (dose: 6.25 mg/kg/injection, schedule: Q04DX003 (ip), vehicle: saline): 6 of 6
survivor count (dose: 7.0 mg/kg/injection, schedule: Q01DX009 (ip), vehicle: saline): 0 of 6
survivor count (dose: 10.0 mg/kg/injection, schedule: Q01DX009 (ip), vehicle: saline): 0 of 6
T/C (dose: 20.0 mg/kg/injection, schedule: Q01DX001 (ip), vehicle: saline): 125 % of control
survivor count (dose: 40.0 mg/kg/injection, schedule: Q04DX003 (ip), vehicle: saline): 3 of 6
survivor count (dose: 50.0 mg/kg/injection, schedule: Q01DX001 (ip), vehicle: saline): 0 of 4
survivor count [9]: 1 of 4
survivor count (dose: 80.0 mg/kg/injection, schedule: Q04DX003 (ip), vehicle: saline): 0 of 6
survivor count [10]: 0 of 4
survivor count [6]: 0 of 6
survivor count [11]: 0 of 4
survivor count [7]: 0 of 6
survivor count [12]: 0 of 4
survivor count [8]: 0 of 6
